Molecular target: T1, lysine oxidase from Pichia pastoris (Komagataella pastoris, UniProt Q96X16)
T1 construct: Purification of the Lysine Oxidase from Pichia pastoris; endogenous in cells; host or cells: Pichia pastoris (enzyme purified from the yeast itself)
T1 sequence (Q96X16 19-787): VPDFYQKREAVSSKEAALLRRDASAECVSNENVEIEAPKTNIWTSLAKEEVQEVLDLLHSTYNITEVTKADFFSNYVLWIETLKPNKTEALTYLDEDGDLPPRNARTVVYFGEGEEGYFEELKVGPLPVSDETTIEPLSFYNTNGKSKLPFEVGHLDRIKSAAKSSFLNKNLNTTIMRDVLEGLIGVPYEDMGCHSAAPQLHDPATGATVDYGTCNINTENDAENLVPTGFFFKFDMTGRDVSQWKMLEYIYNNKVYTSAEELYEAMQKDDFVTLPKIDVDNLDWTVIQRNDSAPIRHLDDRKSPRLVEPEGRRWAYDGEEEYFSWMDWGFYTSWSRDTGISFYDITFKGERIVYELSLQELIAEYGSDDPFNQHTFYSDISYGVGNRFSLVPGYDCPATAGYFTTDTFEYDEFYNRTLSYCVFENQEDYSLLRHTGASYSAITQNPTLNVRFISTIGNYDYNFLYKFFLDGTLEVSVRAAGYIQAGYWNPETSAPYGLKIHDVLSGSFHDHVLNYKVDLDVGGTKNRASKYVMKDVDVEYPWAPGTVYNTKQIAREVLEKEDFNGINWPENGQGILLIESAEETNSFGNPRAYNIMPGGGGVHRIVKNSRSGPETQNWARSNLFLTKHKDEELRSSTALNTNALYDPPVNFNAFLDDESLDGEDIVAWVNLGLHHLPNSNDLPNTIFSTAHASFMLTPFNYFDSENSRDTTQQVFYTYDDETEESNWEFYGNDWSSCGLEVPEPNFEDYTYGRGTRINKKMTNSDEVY
Experiment: Assays with various substrates: conversion in the presence of lysine oxidase (peroxidase/4-aminoantipyrine/phenol dye, absorption at 500 nm)
Format: biochemical
Details: substrate 18.75-1200 μmol/l in water, no reducing agent, L-lysine = 100
Excerpt: The substrates employed were L-lysine monohydrochloride (for biochemical purposes, 99% from Merck), ethanolamine from BASF AG, glycine ethyl ester, 1,8-diaminooctane from Aldrich, n-butylamine from BASF AG, 1,4-diaminobutane from BASF AG, ethylenediamine from BASF AG, spermine from Aldrich, 3-aminomethylpyridine from Aldrich, benzylamine from Aldrich, L-(+)-ornithine hydrochloride (99% from Aldrich) and 1,6-diaminohexane from BASF AG.
Measurement series in each case with a concentration of 1 200, 600, 300, 150, 75, 37.5 and 18.75 μmol of (di)amine per 1 l of water were carried out in a microtiter plate. 2 measurement series were carried out in each case; one with enzyme and one without enzyme as reference.
100 μl of each of the diluted solutions were taken. To this solution were added 25 μl of lysine oxidase and 40 μl of 35 millimolar phenol solution in 200 millimolar potassium phosphate/potassium diphosphate solution with a pH of 7.5, 40 μl of a 2 millimolar aqueous 4-aminoantipyrine solution and 40 μl of a solution of 0.35 mg of peroxidase (horseradish from Sigma) in 1 ml of water.
In the reference measurement series, the 25 μl of lysine oxidase were replaced by 25 μl of water. A violet dye was formed by the […] produced on conversion of the substrates and its absorption in the UV at 500 nm was measured (T. Uwajima, O. Terada, Methods in Enzymology 1982, 89, 243 ff.). […]

| SMILES | Relative conversion rate compared with L-lysine in % [%] |
| --- | --- |
| NCCC[C@H](N)C(=O)O [L-Ornithine] | 90 |
| NCCC[C@@H](N)C(=O)O [D-Ornithine] | 90 |
